Measurements taken from PubChem BioAssay AID2685 (National Center for Advancing Translational Sciences (NCATS), 2010).
Some of the results follow. These are further read-outs of the screen, such as a control signal, another cell line or another target. No call is given for them. Most of these compounds were active or inconclusive in the main read-out, so they are no random draw. Potencies come from curve fits of mixed quality, noted in brackets.

Test: qHTS Assay for Lipid Storage Modulators in Drosophila S3 Cells;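 for cell number change: cells counted by Cell Tracker Red CMTPX staining in the red channel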
Conditions: BODIPY lipid droplet fluorescence, 18-24 h; for cell number change: measured here: cell count max response, cells fed with added oleic acid
Outline: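 Laser-scanning cytometry quantifies lipid droplet accumulation (500–530 nm total intensity; droplet/cell object ratio) in oleic acid-fed (400 uM added) Drosophila S3 cells treated with a concentration series. 20 uM Triacsin C defined 100% inhibition.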

[1] = measured here: lipid fluorescence (Fed channel) AC50, cells fed with added oleic acid
[2] = measured here: cell number channel AC50, cells fed with added oleic acid

## COc1ccc(/C=N/NC(=O)c2cccnc2)cc1
  cell number change: 13.4%
[1]
  AC50: 0.146 µM [rising, full curve, poor fit]

## Clc1ccc(OCc2nnc(-c3ccccc3Br)o2)c(Cl)c1
  cell number change: -8.14%
[2]
  AC50: 0.366 µM [rising, single point]

## CCOC(=O)c1sc(=NC(=O)CCSc2ccccc2)n(C)c1C
[1]
  AC50: 10.3 µM [rising, partial curve]

## O=C(CN1CCOCC1)NCCC12CC3CC(CC(C3)C1)C2
  cell number change: -46.6%
[2]
  AC50: 3.26 µM [falling, full curve]
[1]
  AC50: 20.6 µM [falling, partial curve]

## Cc1onc(-c2ccccc2)c1C(=O)n1nnc2ccccc21
  cell number change: -174%
[2]
  AC50: 29.1 µM [falling, single point]
[1]
  AC50: 29.1 µM [falling, single point]

## CC(=O)CC(=O)Nc1ccc(Cl)cn1
  cell number change: -54.7%
[2]
  AC50: 29.1 µM [falling, single point]
[1]
  AC50: 20.6 µM [falling, single point]

## Cc1cc(NC(=O)Cn2nc(C(F)(F)F)c3c2CCC3)n(-c2ccccc2)n1
[1]
  AC50: 29.1 µM [falling, single point]

## COc1ccc(OC)c(NC(=O)CSc2nncc3ccccc23)c1
  cell number change: -23.8%
[1]
  AC50: 5.8 µM [rising, single point]

## CC1(C)Cc2noc(N)c2C(C)(C)N1OC(=O)c1scc2c1OCCO2
  cell number change: -9.07%
[1]
  AC50: 0.164 µM [falling, full curve, poor fit]

## O=C1NC(c2ccccc2)=NC1(NS(=O)(=O)c1ccc(Cl)cc1)C(F)(F)F (stereo unspecified)
  cell number change: 9%
[1]
  AC50: 0.92 µM [falling, full curve, poor fit]

## CC(=O)c1ccc(OCC(=O)NC2CCS(=O)(=O)C2)cc1 (stereo unspecified)
  cell number change: -4.74%
[1]
  AC50: 7.31 µM [falling, single point]

## CN1CCC(N(C)CC(=O)Nc2ccccc2N2CCOCC2)CC1
  cell number change: -7.15%
[1]
  AC50: 1.64 µM [falling, partial curve]

## COc1ccc(NC(=O)/C(Cl)=C(/Cl)S(=O)(=O)Cc2ccc(C)cc2)cn1
  cell number change: -83.1%
[2]
  AC50: 14.6 µM [falling, partial curve]
[1]
  AC50: 13 µM [falling, partial curve]

## CC1CCN(C(=O)CN2C(=O)NC3(CCC(C)CC3)C2=O)CC1 (stereo unspecified)
  cell number change: 16%
[1]
  AC50: 0.0651 µM [rising, full curve, poor fit]

## O=C(NC1CCCC1)c1ccc(CN2CCOCC2)cc1
  cell number change: 35.5%
[2]
  AC50: 7.31 µM [rising, partial curve, poor fit]

## COc1cccc2cc(C(=O)NC(C)c3ccccc3)c(=O)oc12 (stereo unspecified)
  cell number change: 18.4%
[1]
  AC50: 29.1 µM [rising, single point]

## CSc1cccc(N2CC(C(=O)NCCN3C(=O)S/C(=C\c4cccnc4)C3=O)CC2=O)c1 (stereo unspecified)
  cell number change: -31.4%
[2]
  AC50: 11.6 µM [falling, partial curve, poor fit]
[1]
  AC50: 3.26 µM [rising, partial curve]

## CCOc1ccc(-c2nc(CSc3nnc(C)s3)cs2)cc1OC
[2]
  AC50: 0.326 µM [rising, full curve]

## COc1cc(/C=C2\C(=N)N3N=C(C(C)C)SC3=NC2=O)ccc1OCCOc1ccc(NC(C)=O)cc1
  cell number change: 1.39%
[1]
  AC50: 6.51 µM [rising, single point]

## CC1Cc2ccccc2N1C(=O)Cn1cc([N+](=O)[O-])cn1 (stereo unspecified)
  cell number change: -1.19%
[2]
  AC50: 5.8 µM [rising, single point]
[1]
  AC50: 6.51 µM [rising, partial curve]

## COc1ccc(CNC(=O)C2Cc3ccccc3CN2C(=O)c2ccco2)cc1 (stereo unspecified)
[2]
  AC50: 2.31 µM [falling, partial curve]
[1]
  AC50: 2.31 µM [falling, partial curve]

## Cc1ccc(NC(=O)COc2cccc(/C=C3\SC(=S)N(CCC(=O)O)C3=O)c2)cc1Cl
  cell number change: -24.5%
[1]
  AC50: 32.6 µM [falling, single point]

## COc1cccc(/C=N/NC(=O)CCCc2ccc(OC)c(C)c2)c1
  cell number change: -15.6%
[1]
  AC50: 32.6 µM [falling, single point]

## Cc1n[nH]c(C)c1S(=O)(=O)N1CCC(C(=O)N2CCn3c2nc2ccccc23)CC1
  cell number change: 34.7%
[2]
  AC50: 5.17 µM [rising, partial curve]
[1]
  AC50: 2.31 µM [rising, single point]

## COc1ccc2c(c1)C(=O)C(=O)N2
  cell number change: 6.51%
[1]
  AC50: 1.16 µM [rising, full curve]

## CCn1c(=S)sc2c(=O)n(CC(=O)Nc3cc(OC)ccc3OC)c(C)nc21
  cell number change: -2.75%
[1]
  AC50: 29.1 µM [rising, single point]

## O=S(=O)(NC1CC1)c1ccc(S(=O)(=O)N2CCCC3(CCCCC3)C2)cc1
  cell number change: -19.9%
[1]
  AC50: 2.06 µM [falling, partial curve]

## CC(CCc1ccccc1)NC(=O)COC(=O)C1CCC(C(C)(C)C)CC1 (stereo unspecified)
  cell number change: -58.1%
[2]
  AC50: 20.6 µM [falling, partial curve]
[1]
  AC50: 9.2 µM [falling, partial curve]

## N#CC1(NC(=O)CSc2nnc(Nc3ccccc3F)s2)CCCC1
  cell number change: 0.373%
[1]
  AC50: 0.0326 µM [falling, full curve, poor fit]

## O=C(NC1(C(F)(F)F)N=C2SCCN2C1=O)C1CCCCC1 (stereo unspecified)
  cell number change: -20.2%
[1]
  AC50: 0.461 µM [falling, single point]

## O=C(c1ccc2ccccc2c1)N1CCCC1
  cell number change: 7.77%

## COc1ccccc1N1CCN(C(=O)C2CCCN(S(=O)(=O)c3ccc4c(c3)CCCN4C(C)=O)C2)CC1 (stereo unspecified)
  cell number change: -8.56%
[1]
  AC50: 5.8 µM [rising, single point]

## O=C1OC(Nc2nccs2)c2ccccc21 (stereo unspecified)
  cell number change: 8.93%
[1]
  AC50: 2.31 µM [falling, partial curve]

## COc1cccc(Oc2coc3c(CN4CCOCC4)c(O)ccc3c2=O)c1
  cell number change: 11.6%

## O=C1c2ccccc2C(Nc2ccc(Cl)cc2)N1CCN1CCOCC1 (stereo unspecified)
  cell number change: 40.2%
[2]
  AC50: 23.1 µM [rising, single point]
[1]
  AC50: 25.9 µM [rising, single point]

## CCCCn1nc(C(=O)NCC(=O)Nc2c(C)cccc2C)c2ccccc2c1=O
  cell number change: -4.81%
[1]
  AC50: 1.84 µM [rising, partial curve]
